Reference: PubChem BioAssay AID686943 (Drosophila RNAi Screening Center, 2013)

- Purpose: 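Fly genes whose loss alters ERK activation after insulin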 (primary screen)
- Cell system: Drosophila S2R+ haemocyte-like cells expressing YFP-tagged ERK (Rolled)
- Knock-down reagent: long dsRNA against Drosophila genes
- Conditions: insulin stimulation versus unstimulated cells; dose and duration not given
- Measured: 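Antibody staining for doubly phosphorylated ERK divided by ERK-YFP signal, as plate z-scores, in insulin-treated and untreated cells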
- Scale: replicate 1, z-score of dpERK with insulin: higher = more active ERK per ERK-YFP after insulin
In all, the deposit lists about 23,000 reagents; below is a random part of those with a known target gene and a result. 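Extra replicates exist only for a retested subset of genes; insulin dose and duration not given; both raised and lowered dpERK matter.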 Not all columns of the deposit are shown. Not stated in the record: the amount of reagent, the time to read-out.

Silencing of TfIIS [DRSC03455] resulted in: replicate 1, z-score of dpERK with insulin -0.05.
Silencing of CycA [DRSC09132] gave: replicate 1, z-score of dpERK with insulin -0.23.
With knock-down of CycA [DRSC11123] the results were replicate 1, z-score of dpERK with insulin -1.18.
Depletion of CG31093 [DRSC15689] resulted in: replicate 1, z-score of dpERK with insulin 0.18.
For CG17264 [DRSC00500], the entry reads replicate 1, z-score of dpERK with insulin 0.25.

Sorted by “replicate 1, z-score of dpERK with insulin” (low to high): some entries from above.
CG31093 [DRSC15689] → replicate 1, z-score of dpERK with insulin = 0.18
CG17264 [DRSC00500] → replicate 1, z-score of dpERK with insulin = 0.25

Further reagents follow.
Against Arl2 [DRSC14117] the deposit lists replicate 1, z-score of dpERK with insulin 0.11.
After knock-down of CG7806 [DRSC03071] the results were replicate 1, z-score of dpERK with insulin 0.43.
boca [DRSC06408] gave replicate 1, z-score of dpERK with insulin -0.58.
For dan [DRSC14406], the values are replicate 1, z-score of dpERK with insulin -0.62.
After knock-down of CG5984 [DRSC15930] the results were replicate 1, z-score of dpERK with insulin 0.24.
erm [DRSC00700] showed replicate 1, z-score of dpERK with insulin 0.42.
For GstE11 [DRSC06926], the entry reads replicate 1, z-score of dpERK with insulin 0.03.
